Data set [1] is described as follows: general procedure: Fmoc solid-phase peptide synthesis; polystyrene (PS, DEG), ChemMatrix (CM) or TentaGel (TG) resin; linkers trityl, wang and rink amide. Particulars: for step yield: late stage modification step; for conjugation yield: conjugation step; for isolated yield / isolated mass: whole synthesis.
Data set [2] in a line: general procedure: Fmoc solid-phase peptide synthesis; 1,2-diaminoethane trityl resin. Particulars: whole synthesis, scale 50 μmol.
Data set [3] can be described thus: general procedure: Fmoc solid-phase peptide synthesis; Cysteamine-4-methoxytrityl resin. Particulars: whole synthesis.
Data set [4] in a line: general procedure: Fmoc solid-phase peptide synthesis; Rink amide. Particulars: whole synthesis.
A short description of data set [5]: general procedure: Fmoc solid-phase peptide synthesis; Rink amide resin. Particulars: whole synthesis.
Data set [6] in a line: general procedure: Fmoc solid-phase peptide synthesis; trityl resin. Particulars: whole synthesis, scale 100 μmol.
The nature of data set [7]: general procedure: Fmoc solid-phase peptide synthesis; Trityl resin. Particulars: whole synthesis, scale 50 umol, thioether ring.
Setting [8] is: scale 50 umol, one disulfide bridge.
Where [9] appears, read: overall, scale of the general procedure 50 μmol and 100 μmol.

On to “AGLU-Glutar-Asp-Trp-5Clw-Tap-Glu-leu-[Cys(2Lut)-Apc(DOTA)-Leu-Ile-Cys]-APAc-glu(AGLU)-NH2”, for which the step yield in data set [1] turned out to be 63.6%.

In the case of “DOTA(OtBu)3-Ttds-Asp(OtBu)-Trp(Boc)-5Clw-Pro-Glu(OtBu)-leu-Cys(Mmt)-Aib-Leu-Ile-en-H”, in data set [2], the isolated mass was determined as 11.6 mg and the isolated yield came to 10.8%.

Take “HO-Succinyl-Trp-5Clw-Hyp-Glu-leu-[Cys(2Lut)-Apc-Leu-Ile-AET]”: in data set [3] (scale 100 umol), the isolated mass stood at 83.96 mg and the isolated yield came to 56.0%.

In the case of “Ac-Asp-Trp-5Clw-Hyp-Glu-leu-[Cys(tMeBn(DOTA-AET))-Thp-Leu-Ile-Cys]-NH2”, the conjugation yield in data set [1] (yield for coupling of DOTA, thioether ring) turned out to be 68.1%. Moreover, the isolated yield in data set [1] (overall, scale of the general procedure 50 μmol and 100 μmol, thioether ring) is 16.7%.

In data set [1] (scale 50 μmol), “AGLU-Glutar-Asp-Trp-5Clw-Tap-Glu-leu-[Cys(2Lut)-Apc(DOTAM)-Leu-Ile-Cys]-APAc-glu(AGLU)-NH2” displayed an isolated mass of 12.3 mg and an isolated yield of 9.3%.

In data set [3] (scale 100 umol, cyclic), “DOTA-APAc-Asp-Trp-5Clw-Hyp-Glu-leu-[Dap(2Lut)-Thp-Leu-Ile-AET]” came in with an isolated mass of 10.58 mg and an isolated yield of 5.2%.

With “AGLU-Glutar-APAc-Asp-Trp-5Clw-Tap(AGLU-Glutar)-Glu-leu-[Cys(2Lut)-Apc(DOTA-glu(AGLU))-Leu-Ile-Cys]-APAc-glu(AGLU)-NH2”, in data set [4] (scale 100 umol), the isolated mass amounted to 4.16 mg and the isolated yield is reported as 1.2%.

Consider “DOTA-glu(AGLU)-APAc-Asp-Trp-5Clw-Hyp-Glu-leu-[Cys(2Lut)-Thp-Leu-Ile-Cys]-APAc-glu(AGLU)-NH2”, for which the step yield in data set [1] (thioether ring) amounted to 77.1%.

In data set [4] (scale 100 umol, thioether ring), “Ac-Asp-Trp-5Clw-Nglu(AGLU)-Glu-leu-[Cys(2Lut)-Thp-Leu-Ile-Cys]-NH2” had an isolated mass of 30.9 mg and an isolated yield of 17.4%.

Regarding “HO-Succinyl-Trp-5Clw-Hyp-Glu-leu-[Cys(2Lut)-Apc(MeO10kDaPEGAc)-Leu-Ile-Cys]-APAc-Lys(DOTA)-NH2”, the conjugation yield in data set [1] is listed as 12.7%.

In data set [5] (scale 50 μmol), “tBuO-Succinyl-Trp-5Clw-Hyp-Glu-leu-Cys-Apc-Leu-Ile-Cys-APAc-Lys(Alloc)-NH2” came in with an isolated mass of 30.8 mg and an isolated yield of 28.1%.

In data set [4] (scale 50 umol, thioether ring), “4OHPhp-Asp-Trp-Trp-Pro-Glu-leu-[Cys(3MeBn)-Aib-Leu-Ile-Cys]-Ttds-Lys(DOTA)-NH2” returned an isolated mass of 14.21 mg and an isolated yield of 11.7%.

In data set [4] (setting [8]), “Ac-Asp-Trp-5Clw-Hyp-Glu-leu-[Hey-Thp-Leu-Ile-Hcy]-NH2” came in with an isolated mass of 14.19 mg and an isolated yield of 18.6%.

Regarding “AGLU-Glutar-APAc-Asp-Trp-5Clw-Hyp-Glu-leu-[Cys(2Lut)-Apc(DOTA)-Leu-Ile-Cys]-lys(MeO36PEG)-NH2”, in data set [4] (scale 50 umol), the isolated mass is 11.86 mg and the isolated yield is 5.7%.

For “H-Met-Tyr-Asp-Trp-Trp-Pro-Glu-Leu-[Cys(3MeBn)-Ala-Leu-Ile-Cys]-Ttds-Lys(Bio)-NH2”, in data set [4] (scale 100 umol, thioether ring), the isolated mass worked out at 9.38 mg and the isolated yield is recorded as 15.0%.

In data set [4] (scale 50 umol), “HO-Succinyl-Trp-5Clw-Hyp-Glu-leu-[Cys(2Lut)-Apc(AGLU-Glutar)-Leu-Ile-Cys]-APAc-Lys(DOTA)-NH2” showed an isolated mass of 14.15 mg and an isolated yield of 11.4%.

Consider “Ac-Asp-Trp-5Clw-Hyp-Glu-leu-[Cys(tMeBn(H-AET))-Thp-Leu-Ile-Cys]-NH2”, for which, in data set [4] (scale 100 umol), the isolated mass is given as 41.15 mg and the isolated yield is listed as 24.6%.

In data set [6], “H-Asp-Trp-5Clw-N3Tap-Glu-leu-Cys-Apc-Leu-Ile-Cys-APAc-glu(OAll)-Serol” showed an isolated mass of 15.72 mg and an isolated yield of 6.8%.

In the case of “AGLU-Glutar-Asp-Trp-5Clw-Tap-Glu-leu-[Cys(2Lut)-Apc(NODAGA-Gly)-Leu-Ile-Cys]-APAc-glu(AGLU)-NH2”, in data set [4] (scale 50 umol), the isolated mass was 11.5 mg and the isolated yield is recorded as 8.6%.

In the case of “Ac-Tyr-Asp-Trp-Trp-Pro-Glu-Leu-[Cys(3MeBn)-Ala-Leu-Ile-Cys]-Ttds-Lys(DOTA)-NH2”, in data set [4] (scale 50 umol, thioether ring), the isolated mass came out at 10.37 mg and the isolated yield was determined as 8.4%.

In data set [4] (scale 50 umol, thioether ring), “HO-Succinyl-Trp-1Ni-Pro-Glu-Leu-[Cys(3MeBn)-Aib-Leu-Ile-Cys]-Ttds-Lys(DOTA)-NH2” returned an isolated mass of 15.17 mg and an isolated yield of 13.30%.

With “AGLU-Glutar-Asp-Trp-5Clw-N3Tap-Glu-leu-Cys-Apc-Leu-Ile-Cys-APAc-glu(AGLU)-NH2”, in data set [5] (scale 50 μmol), the isolated mass is 29.95 mg and the isolated yield came out at 26.10%.

As to “AGLU-Glutar-Asp-Trp-5Clw-Tap-Glu-leu-[Cys(2Lut)-Apc(DOTA)-Leu-Ile-Cys]-APAc-glu(AGLU)-NH2 [GIP-001]”, the isolated mass is 6.8 mg in data set [4] (scale 50 umol, run 1); 1.36 mg in data set [4] (scale 50 umol, run 2); 43.62 mg in data set [4] (scale 100 umol). The isolated yield in data set [4] (scale 50 umol, run 1) is recorded as 5.1%; in data set [4] (scale 50 umol, run 2), 1.0%; in data set [4] (scale 100 umol), 16.5%; in data set [1] (setting [9]) it was 6.7%. Further, the conjugation yield in data set [1] (yield for coupling of DOTA) is recorded as 49.5%.

As to “Ac-Asp-Trp-5Clw-Hyp-Glu-leu-[Cys(2Lut)-Thp-Leu-Ile-Cys]-OH”, in data set [7], the isolated mass is reported as 34.09 mg and the isolated yield is recorded as 42.6%.

“AGLU-Glutar-Asp-Trp-5Clw-Tap-Glu-leu-[Cys(2Lut)-Apc(NODAGA)-Leu-Ile-Cys]-APAc-glu(AGLU)-NH2”: the step yield in data set [1] came out at 75.10%.

For the substance “DOTA-Ttds-Asp-Trp-Trp-Pro-Glu-leu-[Cys(3MeBn)-Aib-Leu-Ile-AET]”, in data set [3] (scale 50 umol, thioether ring), the isolated mass came out at 43.69 mg and the isolated yield turned out to be 41.4%.

In data set [4] (scale 20 umol), “AGLU-Glutar-Asp-Trp-5Clw-Tap-Glu-leu-[Cys(2Lut)-Apc(NOPO)-Leu-Ile-Cys]-APAc-glu(AGLU)-NH2” registered an isolated mass of 12.63 mg and an isolated yield of 23.0%.

For the substance “DOTA-Ttds-Tyr-Asp-Trp-Trp-Pro-Glu-Leu-[Cys(3MeBn)-Ala-Leu-Ile-Cys]-NH2”, in data set [4] (scale 50 umol, thioether ring), the isolated mass was 16.11 mg and the isolated yield was 14.0%.

In data set [1] (scale 100 μmol), “NTASEROL-Asp-Trp-5Clw-Tap-Glu-leu-[Cys(2Lut)-Apc(DOTA)-Leu-Ile-Cys]-APAc-GLUSEROL” yielded an isolated mass of 8.62 mg and an isolated yield of 3.2%.

As for “HO-Succinyl-Trp-5Clw-Hyp-Glu-leu-[Cys(2Lut)-Apc(DOTA)-Leu-Ile-AET]”, in data set [1] (yield for coupling of DOTA), the conjugation yield came to 57.2%. The substance also returned an isolated yield in data set [1] (setting [9]) of 32.0%.

In data set [4] (scale 50 umol, thioether ring), “Ac-Asp-Trp-5Clw-Hyp-Glu-leu-[Cys(mli)-Thp-Leu-Ile-Hcy]-NH2” returned an isolated mass of 11.16 mg and an isolated yield of 13.9%.

With “AGLU-Glutar-Asp-Trp-5Clw-Hyp-Glu-leu-[Cys(2Lut)-Apc-Leu-Ile-Cys]-APAc-glu(AGLU)-NH2”, in data set [4] (scale 100 umol), the isolated mass is on record as 31.04 mg and the isolated yield was found to be 13.7%.

For the substance “NTASEROL-Asp-Trp-5Clw-Tap-Glu-leu-[Cys(2Lut)-Apc(DOTA)-Leu-Ile-Cys]-APAc-dap(NTASEROL)-NH2”, in data set [5] (scale 100 μmol), the isolated mass is 5.52 mg and the isolated yield was 2.0%.

Take “AGLU-Glutar-Asp-Trp-5Clw-Hyp-Glu-leu-[Cys(2Lut)-Thp-Leu-Ile-Cys]-APAc-glu(AGLU)-Lys(DOTA)-NH2”: in data set [4] (scale 50 umol, thioether ring), the isolated mass is reported as 10.29 mg and the isolated yield stood at 7.4%.

On to “AGLU-Glutar-Asp-Trp-5Clw-N3Tap-Glu-leu-[Cys(2Lut)-Apc-Leu-Ile-Cys]-APAc-glu(AGLU)-NH2”, for which, in data set [4] (scale 100 umol), the isolated mass was 30.94 mg and the isolated yield was found to be 13.5%.
